The supplement of paper PMC10849652
The other results are listed elsewhere or left out.

Amino acid sequences for entries named in this document (tags omitted). A change or cut given only in a name is not applied to a line headed by its entry.
UniProt Q8TB72: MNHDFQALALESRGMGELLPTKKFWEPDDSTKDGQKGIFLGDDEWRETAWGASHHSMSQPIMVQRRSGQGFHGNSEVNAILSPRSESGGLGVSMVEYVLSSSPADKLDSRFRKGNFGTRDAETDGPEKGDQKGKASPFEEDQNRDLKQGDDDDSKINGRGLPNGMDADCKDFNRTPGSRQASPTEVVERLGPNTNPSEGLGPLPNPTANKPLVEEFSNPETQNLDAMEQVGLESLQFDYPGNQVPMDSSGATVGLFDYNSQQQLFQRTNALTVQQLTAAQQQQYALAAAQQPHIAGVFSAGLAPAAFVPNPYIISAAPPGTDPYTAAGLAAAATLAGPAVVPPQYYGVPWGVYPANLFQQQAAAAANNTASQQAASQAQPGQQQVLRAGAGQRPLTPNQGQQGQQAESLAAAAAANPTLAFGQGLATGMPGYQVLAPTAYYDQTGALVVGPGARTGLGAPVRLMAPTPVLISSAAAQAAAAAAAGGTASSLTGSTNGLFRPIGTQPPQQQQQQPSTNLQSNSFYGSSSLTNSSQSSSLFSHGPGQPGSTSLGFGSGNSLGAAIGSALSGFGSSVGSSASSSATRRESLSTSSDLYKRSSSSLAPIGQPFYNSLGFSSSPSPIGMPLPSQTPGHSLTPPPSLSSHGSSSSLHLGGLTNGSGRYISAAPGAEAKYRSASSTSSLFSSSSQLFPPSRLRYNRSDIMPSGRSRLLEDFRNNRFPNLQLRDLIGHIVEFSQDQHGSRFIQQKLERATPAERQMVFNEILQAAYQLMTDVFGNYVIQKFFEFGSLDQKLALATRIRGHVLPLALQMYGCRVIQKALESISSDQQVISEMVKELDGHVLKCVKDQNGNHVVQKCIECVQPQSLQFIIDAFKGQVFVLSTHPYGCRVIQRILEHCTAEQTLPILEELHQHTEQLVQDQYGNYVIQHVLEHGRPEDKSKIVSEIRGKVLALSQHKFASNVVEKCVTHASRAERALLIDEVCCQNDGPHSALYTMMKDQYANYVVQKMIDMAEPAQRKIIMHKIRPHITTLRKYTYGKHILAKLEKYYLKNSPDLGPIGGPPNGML
UniProt Q8N8N7: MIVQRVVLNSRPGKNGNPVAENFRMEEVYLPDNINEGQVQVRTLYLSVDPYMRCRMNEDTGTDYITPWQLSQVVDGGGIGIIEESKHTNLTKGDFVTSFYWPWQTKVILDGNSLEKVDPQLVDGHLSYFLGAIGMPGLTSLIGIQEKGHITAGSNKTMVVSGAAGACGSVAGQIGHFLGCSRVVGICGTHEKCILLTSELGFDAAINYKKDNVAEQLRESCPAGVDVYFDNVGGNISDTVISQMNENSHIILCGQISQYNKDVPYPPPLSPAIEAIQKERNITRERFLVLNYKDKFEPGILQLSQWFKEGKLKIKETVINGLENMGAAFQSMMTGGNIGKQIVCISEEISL
UniProt Q15269: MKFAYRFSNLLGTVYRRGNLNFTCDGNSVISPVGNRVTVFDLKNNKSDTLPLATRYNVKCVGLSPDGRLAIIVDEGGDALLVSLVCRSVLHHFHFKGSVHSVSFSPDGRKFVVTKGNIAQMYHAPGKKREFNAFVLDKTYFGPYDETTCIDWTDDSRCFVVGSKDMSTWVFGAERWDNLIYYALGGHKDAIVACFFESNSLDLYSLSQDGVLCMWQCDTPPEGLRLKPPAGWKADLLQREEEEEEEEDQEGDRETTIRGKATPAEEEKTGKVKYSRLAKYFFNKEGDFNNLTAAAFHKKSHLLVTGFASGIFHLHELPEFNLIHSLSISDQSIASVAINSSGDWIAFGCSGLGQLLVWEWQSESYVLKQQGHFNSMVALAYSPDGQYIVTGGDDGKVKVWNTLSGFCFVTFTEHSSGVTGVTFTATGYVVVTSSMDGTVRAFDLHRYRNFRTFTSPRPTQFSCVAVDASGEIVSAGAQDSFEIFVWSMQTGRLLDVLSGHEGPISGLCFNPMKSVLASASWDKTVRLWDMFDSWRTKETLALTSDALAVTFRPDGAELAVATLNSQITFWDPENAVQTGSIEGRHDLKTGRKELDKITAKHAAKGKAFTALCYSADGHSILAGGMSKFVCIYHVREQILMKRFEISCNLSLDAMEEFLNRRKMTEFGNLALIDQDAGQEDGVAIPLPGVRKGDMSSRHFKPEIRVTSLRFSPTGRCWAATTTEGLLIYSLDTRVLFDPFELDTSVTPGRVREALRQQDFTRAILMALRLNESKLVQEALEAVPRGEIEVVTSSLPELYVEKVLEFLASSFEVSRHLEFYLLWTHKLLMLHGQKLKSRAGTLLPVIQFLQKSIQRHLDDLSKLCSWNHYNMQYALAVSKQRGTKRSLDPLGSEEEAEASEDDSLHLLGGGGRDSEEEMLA
UniProt Q93096: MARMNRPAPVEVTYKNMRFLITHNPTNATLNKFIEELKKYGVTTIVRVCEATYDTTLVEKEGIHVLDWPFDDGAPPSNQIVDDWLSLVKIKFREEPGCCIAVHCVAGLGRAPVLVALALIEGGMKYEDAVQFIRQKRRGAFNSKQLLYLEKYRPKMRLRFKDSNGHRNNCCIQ
UniProt Q05209: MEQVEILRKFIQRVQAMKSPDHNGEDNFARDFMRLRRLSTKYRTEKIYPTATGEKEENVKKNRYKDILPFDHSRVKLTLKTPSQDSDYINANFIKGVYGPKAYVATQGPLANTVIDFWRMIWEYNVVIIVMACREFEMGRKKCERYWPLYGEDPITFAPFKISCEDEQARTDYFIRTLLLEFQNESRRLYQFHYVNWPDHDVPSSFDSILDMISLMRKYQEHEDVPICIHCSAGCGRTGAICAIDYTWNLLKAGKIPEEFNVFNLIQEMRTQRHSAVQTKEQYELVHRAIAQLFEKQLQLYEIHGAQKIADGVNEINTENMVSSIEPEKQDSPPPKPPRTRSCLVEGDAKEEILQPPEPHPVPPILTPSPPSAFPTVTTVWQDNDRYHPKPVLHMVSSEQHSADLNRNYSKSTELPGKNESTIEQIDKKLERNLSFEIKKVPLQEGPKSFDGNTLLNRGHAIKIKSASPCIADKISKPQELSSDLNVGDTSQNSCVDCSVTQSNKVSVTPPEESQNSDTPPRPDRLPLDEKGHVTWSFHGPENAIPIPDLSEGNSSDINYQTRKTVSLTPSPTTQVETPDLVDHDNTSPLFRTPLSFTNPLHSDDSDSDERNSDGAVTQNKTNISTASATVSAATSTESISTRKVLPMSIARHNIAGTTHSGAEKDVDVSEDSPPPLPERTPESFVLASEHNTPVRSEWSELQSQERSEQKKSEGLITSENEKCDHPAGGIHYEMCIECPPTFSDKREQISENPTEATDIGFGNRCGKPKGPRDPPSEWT
UniProt Q15257: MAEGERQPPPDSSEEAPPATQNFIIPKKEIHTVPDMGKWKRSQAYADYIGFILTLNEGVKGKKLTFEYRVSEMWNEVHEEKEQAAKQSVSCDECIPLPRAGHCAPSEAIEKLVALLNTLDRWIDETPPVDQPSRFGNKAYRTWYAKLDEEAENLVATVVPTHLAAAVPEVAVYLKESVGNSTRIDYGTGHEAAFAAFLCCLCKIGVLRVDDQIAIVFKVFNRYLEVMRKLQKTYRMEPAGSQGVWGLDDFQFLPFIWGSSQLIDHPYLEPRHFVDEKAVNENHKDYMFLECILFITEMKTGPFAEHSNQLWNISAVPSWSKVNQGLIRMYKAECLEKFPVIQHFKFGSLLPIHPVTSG
UniProt Q8NDX1: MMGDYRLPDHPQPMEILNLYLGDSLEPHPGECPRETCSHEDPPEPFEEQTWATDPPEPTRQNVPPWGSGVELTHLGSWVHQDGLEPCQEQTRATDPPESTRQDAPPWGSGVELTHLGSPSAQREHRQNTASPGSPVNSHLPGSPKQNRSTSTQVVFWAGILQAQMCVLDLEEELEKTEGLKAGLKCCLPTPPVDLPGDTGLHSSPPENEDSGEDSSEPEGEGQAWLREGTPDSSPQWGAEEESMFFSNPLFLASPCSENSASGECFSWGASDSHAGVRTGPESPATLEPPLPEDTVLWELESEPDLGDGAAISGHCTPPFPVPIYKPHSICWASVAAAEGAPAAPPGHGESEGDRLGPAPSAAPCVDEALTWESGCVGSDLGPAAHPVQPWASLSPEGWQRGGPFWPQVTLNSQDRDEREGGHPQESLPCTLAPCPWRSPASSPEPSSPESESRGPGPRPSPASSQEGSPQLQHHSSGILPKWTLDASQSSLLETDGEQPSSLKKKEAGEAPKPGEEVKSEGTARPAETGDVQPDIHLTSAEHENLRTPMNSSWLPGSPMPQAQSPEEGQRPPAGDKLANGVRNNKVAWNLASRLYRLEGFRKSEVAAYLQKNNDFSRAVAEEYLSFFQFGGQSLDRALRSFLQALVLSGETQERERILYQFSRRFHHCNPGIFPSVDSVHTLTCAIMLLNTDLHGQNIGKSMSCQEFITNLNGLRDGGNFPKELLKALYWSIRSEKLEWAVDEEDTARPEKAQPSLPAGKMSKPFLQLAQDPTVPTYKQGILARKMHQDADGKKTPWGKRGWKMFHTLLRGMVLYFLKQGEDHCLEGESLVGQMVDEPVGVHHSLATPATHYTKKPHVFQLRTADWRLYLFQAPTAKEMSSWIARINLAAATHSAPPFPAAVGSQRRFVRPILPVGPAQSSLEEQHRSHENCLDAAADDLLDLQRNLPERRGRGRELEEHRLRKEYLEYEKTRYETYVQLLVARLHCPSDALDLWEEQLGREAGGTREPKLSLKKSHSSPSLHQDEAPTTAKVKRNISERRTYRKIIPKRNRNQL
UniProt P06737: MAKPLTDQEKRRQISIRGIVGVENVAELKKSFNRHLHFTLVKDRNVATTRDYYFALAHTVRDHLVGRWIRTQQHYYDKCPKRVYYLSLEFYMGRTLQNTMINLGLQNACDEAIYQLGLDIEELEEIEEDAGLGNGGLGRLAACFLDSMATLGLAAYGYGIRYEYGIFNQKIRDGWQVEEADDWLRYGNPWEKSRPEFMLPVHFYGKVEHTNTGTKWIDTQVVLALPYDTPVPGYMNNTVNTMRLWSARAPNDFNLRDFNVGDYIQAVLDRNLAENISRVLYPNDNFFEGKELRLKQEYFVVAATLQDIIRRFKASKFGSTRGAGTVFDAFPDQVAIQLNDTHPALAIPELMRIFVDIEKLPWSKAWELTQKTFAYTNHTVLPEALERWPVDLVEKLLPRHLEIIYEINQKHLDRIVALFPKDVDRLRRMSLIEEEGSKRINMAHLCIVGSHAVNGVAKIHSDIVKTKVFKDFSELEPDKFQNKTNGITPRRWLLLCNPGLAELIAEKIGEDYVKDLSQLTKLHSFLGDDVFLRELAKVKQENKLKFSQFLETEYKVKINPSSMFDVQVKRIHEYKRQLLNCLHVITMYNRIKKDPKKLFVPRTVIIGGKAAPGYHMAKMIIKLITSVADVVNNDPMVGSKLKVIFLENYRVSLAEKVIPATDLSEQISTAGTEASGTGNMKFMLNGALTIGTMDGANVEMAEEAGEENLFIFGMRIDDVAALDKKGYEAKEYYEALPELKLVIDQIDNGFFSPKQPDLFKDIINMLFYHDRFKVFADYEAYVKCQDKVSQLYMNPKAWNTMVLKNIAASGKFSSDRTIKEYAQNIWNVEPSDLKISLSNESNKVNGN
UniProt P62195, whole entry, looked up: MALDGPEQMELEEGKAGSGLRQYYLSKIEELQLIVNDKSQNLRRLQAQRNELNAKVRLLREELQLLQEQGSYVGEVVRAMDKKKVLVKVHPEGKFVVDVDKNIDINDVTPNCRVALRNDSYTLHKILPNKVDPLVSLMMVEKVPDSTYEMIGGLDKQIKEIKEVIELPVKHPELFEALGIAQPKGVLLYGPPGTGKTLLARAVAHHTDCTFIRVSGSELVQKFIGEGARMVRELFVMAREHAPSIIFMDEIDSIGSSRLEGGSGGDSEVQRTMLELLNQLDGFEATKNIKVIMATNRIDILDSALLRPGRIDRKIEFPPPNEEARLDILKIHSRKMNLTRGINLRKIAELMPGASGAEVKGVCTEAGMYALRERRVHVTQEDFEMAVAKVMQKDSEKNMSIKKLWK
UniProt O14818: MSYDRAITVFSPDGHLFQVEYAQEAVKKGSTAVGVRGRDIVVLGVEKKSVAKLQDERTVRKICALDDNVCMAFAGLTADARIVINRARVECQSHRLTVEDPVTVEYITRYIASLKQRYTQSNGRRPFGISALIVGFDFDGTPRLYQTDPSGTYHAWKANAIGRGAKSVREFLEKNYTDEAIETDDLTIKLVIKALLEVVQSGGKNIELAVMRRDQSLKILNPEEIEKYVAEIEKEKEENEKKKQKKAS
UniProt O00233: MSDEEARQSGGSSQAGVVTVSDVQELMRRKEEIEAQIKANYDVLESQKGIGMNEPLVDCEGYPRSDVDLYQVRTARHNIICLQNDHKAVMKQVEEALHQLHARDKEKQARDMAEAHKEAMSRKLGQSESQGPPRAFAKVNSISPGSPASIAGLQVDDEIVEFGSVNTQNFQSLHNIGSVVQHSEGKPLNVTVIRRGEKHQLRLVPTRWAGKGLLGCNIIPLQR
UniProt Q15185: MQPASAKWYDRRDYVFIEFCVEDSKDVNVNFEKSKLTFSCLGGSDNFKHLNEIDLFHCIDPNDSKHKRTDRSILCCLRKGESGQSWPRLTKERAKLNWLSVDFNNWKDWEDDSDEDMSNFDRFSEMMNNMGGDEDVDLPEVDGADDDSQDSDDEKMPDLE

Experiments:
Assay in all cases: log2 fold change, soluble protein after heating vs DMSO (PISA); higher = thermal stabilisation; K562 cells, 10 uM, 30 min; active = over 0.2 and 3.5 SD of the protein, either way, in both replicates (recomputed)
[1] = compound: CS(=O)(=O)c1ccc(-c2cnc(N)c(C(=O)Nc3ccccc3)n2)cc1
Procedure, shortened: (§1)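 K562 cells (2×10^6 cells/mL) were treated with 10 μM compound for 30 min, and aliquots were heated for 3 min over 48°C-58°C. Pooled aliquots were extracted in PBS with 0.5% NP-40 at 4°C, and the supernatant after 21,000xg for 90 min was measured by TMTpro 16plex LC-MS/MS with channel sums equalised. Reported thermal stability, relative to control samples and from duplicates, is a log2 fold change.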

[2] = compound: C[C@@H](Oc1cc(-c2cnn(C3CCNCC3)c2)cnc1N)c1c(Cl)ccc(F)c1Cl [crizotinib]
Procedure, shortened: as §1

[3] = compound: C[C@@H]1COCCN1C2=NC(=NC(=C2)C3(CC3)S(=O)(=O)C)C4=C5C=CNC5=CC=C4
Procedure, shortened: as §1

[4] = compound: C[C@H](C1=CC=C(C=C1)C(=O)NC2=C3C=CNC3=NC=C2)N
Procedure, shortened: as §1

[5] = compound: Cc1cc(Nc2cc(CN3CCOCC3)c3nc(C)c(Cc4ccc(Cl)cc4F)n3n2)n[nH]1 [gandotinib]
Procedure, shortened: as §1

[6] = compound: Cc1cc(SCc2sc(-c3ccc(C(F)(F)F)cc3)nc2C)ccc1OCC(=O)O
Procedure, shortened: as §1

[7] = compound: Cc1ccc(-n2nc(C(C)(C)C)cc2NC(=O)Nc2ccc(OCCN3CCOCC3)c3ccccc23)cc1 [doramapimod]
Procedure, shortened: as §1

[8] = compound: Cc1ccc(C(=O)N(CCCN)[C@@H](c2nc3cc(Cl)ccc3c(=O)n2Cc2ccccc2)C(C)C)cc1 [ispinesib]
Procedure, shortened: as §1

[9] = compound: C[C@H](Nc1ncnc2nc[nH]c12)c1cc2cccc(Cl)c2c(=O)n1-c1ccccc1 [duvelisib]
Procedure, shortened: as §1

[10] = compound: Cc1cc(Nc2cc(N3CCN(C)CC3)nc(Sc3ccc(NC(=O)C4CC4)cc3)n2)n[nH]1 [tozasertib]
Procedure, shortened: as §1

Target	log2 fold change [1]	log2 fold change [2]	log2 fold change [3]	log2 fold change [4]	log2 fold change [5]	log2 fold change [6]	log2 fold change [7]	log2 fold change [8]	log2 fold change [9]	log2 fold change [10]
QRSL1 (UniProt Q9H0R6)	inactive: 0.046	inactive: -0.04	active: 0.212	inactive: -0.023	inactive: 0.082	inactive: 0.024	inactive: -0.015	inactive: -0.049		
PUM2 (UniProt Q8TB72)	inactive: -0.045	inactive: 0.014	inactive: -0.072	inactive: 0.053	inactive: -0.014	inactive: -0.027	inactive: -0.019	inactive: -0.071	inactive: 0.138	inactive: -0.029
PTRHD1 (UniProt Q6GMV3)	inactive: 0.003	inactive: 0.006	inactive: 0.184	inactive: -0.097	inactive: 0.08	inactive: 0.022	inactive: -0.036	inactive: 0.225		
PTGR2 (UniProt Q8N8N7)	inactive: 0.097	inactive: -0.075	inactive: 0.045	inactive: 0.112	inactive: 0.192	inactive: -0.185	inactive: 0.223	inactive: 0.013		
PSEN1 (UniProt P49768)	inactive: 0.006	inactive: -0.076	inactive: 0.1	inactive: -0.004		inactive: 0.001	inactive: 0.012	inactive: -0.061	inactive: 0.057	inactive: -0.012
PWP2 (UniProt Q15269)	inactive: -0.072	inactive: 0.006	inactive: -0.165	inactive: 0.18	inactive: 0.143	inactive: 0.007	inactive: 0.068	inactive: 0.044	inactive: -0.061	inactive: 0.058
PTK2 (UniProt Q05397)	inactive: 0.013	inactive: 0.119	inactive: 0.076	inactive: -0.037	inactive: 0.074	inactive: -0.019		inactive: 0.013	inactive: 0.041	inactive: -0.018
PSMC3 (UniProt P17980)	inactive: 0.002	inactive: 0.012	inactive: -0.098	inactive: 0.067	inactive: 0.027	inactive: 0.011	inactive: 0.017	inactive: -0.024		
PTP4A1 (UniProt Q93096)	inactive: 0.04	inactive: 0.036	inactive: -0.006	inactive: -0.094	inactive: -0.116	inactive: -0.039	inactive: -0.037	inactive: 0.039		
PTPN12 (UniProt Q05209)	inactive: 0.031	inactive: -0.018	inactive: -0.04	inactive: 0.069	inactive: -0.088	inactive: 0.053	inactive: -0.004	inactive: -0.011		
PTGES2 (UniProt Q9H7Z7)	inactive: 0.012	inactive: 0.021	inactive: 0.004	inactive: -0.038	inactive: -0.008	inactive: -0.024	inactive: 0.008	inactive: -0.048	inactive: 0.007	inactive: 0.029
PUF60 (UniProt Q9UHX1)	inactive: -0.012	inactive: 0.031	inactive: 0.025	inactive: -0.199	inactive: -0.09	inactive: 0.056	inactive: -0.041	inactive: 0.039		
PTPA (UniProt Q15257)	inactive: -0.001	inactive: 0.028	inactive: 0.074	inactive: -0.117	inactive: -0.037	inactive: 0.013	inactive: -0.001	inactive: 0.091		
PSD4 (UniProt Q8NDX1)	inactive: 0.096	inactive: -0.114	inactive: -0.252	inactive: 0.033		inactive: 0.112	inactive: 0.083	inactive: -0.014	inactive: 0.012	inactive: 0.056
PSMD2 (UniProt Q13200)	inactive: 0.017	inactive: 0.019	inactive: -0.063	inactive: 0.075	inactive: 0.015	inactive: 0.004	inactive: 0.021	inactive: -0.017		
PSMB9 (UniProt P28065)	inactive: 0.259	inactive: 0	inactive: 0.075	inactive: 0.066	inactive: 0.126		inactive: 0.084			

2 entries from above in a different format.

| Target | log2 fold change [1] | log2 fold change [2] | log2 fold change [3] | log2 fold change [4] | log2 fold change [5] | log2 fold change [6] | log2 fold change [7] | log2 fold change [8] | log2 fold change [9] | log2 fold change [10] |
| --- | --- | --- | --- | --- | --- | --- | --- | --- | --- | --- |
| PTRHD1 (UniProt Q6GMV3) | inactive: 0.003 | inactive: 0.006 | inactive: 0.184 | inactive: -0.097 | inactive: 0.08 | inactive: 0.022 | inactive: -0.036 | inactive: 0.225 |  |  |
| PWP2 (UniProt Q15269) | inactive: -0.072 | inactive: 0.006 | inactive: -0.165 | inactive: 0.18 | inactive: 0.143 | inactive: 0.007 | inactive: 0.068 | inactive: 0.044 | inactive: -0.061 | inactive: 0.058 |

Carrying on:

Target	log2 fold change [1]	log2 fold change [2]	log2 fold change [3]	log2 fold change [4]	log2 fold change [5]	log2 fold change [6]	log2 fold change [7]	log2 fold change [8]	log2 fold change [9]	log2 fold change [10]
PYGL (UniProt P06737)	inactive: -0.122	inactive: 0.003	inactive: 0.026	inactive: -0.019	inactive: 0.013	inactive: -0.023	inactive: 0.001	inactive: 0.015		
PTPN23 (UniProt Q9H3S7)	inactive: 0.014	inactive: 0.057	inactive: 0.018	inactive: 0.027	inactive: -0.072	inactive: 0.13	inactive: -0.002	inactive: 0.018		
PSMD4 (UniProt Q5VWC4)	inactive: -0.07	inactive: 0.033	inactive: 0	inactive: 0.125	inactive: -0.027		inactive: 0.019			
PSMC5 (UniProt P62195)	inactive: 0.025	inactive: 0.001	inactive: -0.07	inactive: 0.057	inactive: 0.017	inactive: 0.036	inactive: 0.028	inactive: -0.007		
PTMA (UniProt P06454)	inactive: -0.041	inactive: -0.302	inactive: -0.155	inactive: -0.034	inactive: 0.059	inactive: -0.042	inactive: 0.072	inactive: 0.199		
PTTG1 (UniProt O95997)	inactive: -0.093	inactive: -0.012	inactive: -0.085	inactive: -0.044	inactive: -0.108	inactive: 0.021	inactive: 0.076	inactive: -0.034		
R3HDM1 isoform 2 (UniProt Q15032)	inactive: 0.064	inactive: 0.018			inactive: -0.025	inactive: 0.181	inactive: -0.082	inactive: 0.083	inactive: 0.062	inactive: -0.012
PYGB (UniProt P11216)	active: -0.305	inactive: -0.057	inactive: 0.015	inactive: 0.107	inactive: -0.045	inactive: -0.002	inactive: -0.005	inactive: 0.013		
PSMA7 isoform 2 (UniProt O14818)	inactive: 0.13	inactive: 0.208	inactive: -0.056	inactive: 0.291			inactive: 0			inactive: -0.085
R3HCC1 (UniProt Q9Y3T6)	inactive: 0.083	inactive: -0.021		inactive: 0.009	inactive: 0.076		inactive: 0.019	inactive: 0.022		inactive: 0.061
PYGO2 (UniProt Q9BRQ0)	inactive: 0.303	inactive: 0.077	inactive: -0.122		inactive: 0.082		inactive: 0.013	inactive: -0.118		
PSMB2, A0A087WVV1	inactive: -0.179	inactive: 0.064			inactive: -0.106	inactive: 0.027	inactive: -0.054	inactive: 0.029	inactive: -0.063	
PSMC3 (UniProt E9PLG2)	inactive: 0.206	inactive: 0.168	inactive: 0.101			inactive: -0.101	inactive: -0.058			
PSMD9 (UniProt O00233)	inactive: -0.041	inactive: -0.069	inactive: 0.022	inactive: -0.059	inactive: -0.018	inactive: -0.026	inactive: 0.001	inactive: 0.016		
PTPRS (UniProt Q13332)	inactive: -0.051	inactive: -0.086	inactive: 0.107		inactive: -0.395	inactive: 0.045	inactive: 0.125	inactive: 0.006	inactive: -0.21	
PTGES3 (UniProt Q15185)	inactive: 0.047	inactive: 0.066	inactive: 0.068	inactive: -0.101	inactive: -0.049	inactive: 0.086	inactive: -0.118	inactive: 0.015		
